{"sequences": {"note": "The chains behind the UniProt entries cited, without tags or fusion partners.", "UniProt Q9UPY3": "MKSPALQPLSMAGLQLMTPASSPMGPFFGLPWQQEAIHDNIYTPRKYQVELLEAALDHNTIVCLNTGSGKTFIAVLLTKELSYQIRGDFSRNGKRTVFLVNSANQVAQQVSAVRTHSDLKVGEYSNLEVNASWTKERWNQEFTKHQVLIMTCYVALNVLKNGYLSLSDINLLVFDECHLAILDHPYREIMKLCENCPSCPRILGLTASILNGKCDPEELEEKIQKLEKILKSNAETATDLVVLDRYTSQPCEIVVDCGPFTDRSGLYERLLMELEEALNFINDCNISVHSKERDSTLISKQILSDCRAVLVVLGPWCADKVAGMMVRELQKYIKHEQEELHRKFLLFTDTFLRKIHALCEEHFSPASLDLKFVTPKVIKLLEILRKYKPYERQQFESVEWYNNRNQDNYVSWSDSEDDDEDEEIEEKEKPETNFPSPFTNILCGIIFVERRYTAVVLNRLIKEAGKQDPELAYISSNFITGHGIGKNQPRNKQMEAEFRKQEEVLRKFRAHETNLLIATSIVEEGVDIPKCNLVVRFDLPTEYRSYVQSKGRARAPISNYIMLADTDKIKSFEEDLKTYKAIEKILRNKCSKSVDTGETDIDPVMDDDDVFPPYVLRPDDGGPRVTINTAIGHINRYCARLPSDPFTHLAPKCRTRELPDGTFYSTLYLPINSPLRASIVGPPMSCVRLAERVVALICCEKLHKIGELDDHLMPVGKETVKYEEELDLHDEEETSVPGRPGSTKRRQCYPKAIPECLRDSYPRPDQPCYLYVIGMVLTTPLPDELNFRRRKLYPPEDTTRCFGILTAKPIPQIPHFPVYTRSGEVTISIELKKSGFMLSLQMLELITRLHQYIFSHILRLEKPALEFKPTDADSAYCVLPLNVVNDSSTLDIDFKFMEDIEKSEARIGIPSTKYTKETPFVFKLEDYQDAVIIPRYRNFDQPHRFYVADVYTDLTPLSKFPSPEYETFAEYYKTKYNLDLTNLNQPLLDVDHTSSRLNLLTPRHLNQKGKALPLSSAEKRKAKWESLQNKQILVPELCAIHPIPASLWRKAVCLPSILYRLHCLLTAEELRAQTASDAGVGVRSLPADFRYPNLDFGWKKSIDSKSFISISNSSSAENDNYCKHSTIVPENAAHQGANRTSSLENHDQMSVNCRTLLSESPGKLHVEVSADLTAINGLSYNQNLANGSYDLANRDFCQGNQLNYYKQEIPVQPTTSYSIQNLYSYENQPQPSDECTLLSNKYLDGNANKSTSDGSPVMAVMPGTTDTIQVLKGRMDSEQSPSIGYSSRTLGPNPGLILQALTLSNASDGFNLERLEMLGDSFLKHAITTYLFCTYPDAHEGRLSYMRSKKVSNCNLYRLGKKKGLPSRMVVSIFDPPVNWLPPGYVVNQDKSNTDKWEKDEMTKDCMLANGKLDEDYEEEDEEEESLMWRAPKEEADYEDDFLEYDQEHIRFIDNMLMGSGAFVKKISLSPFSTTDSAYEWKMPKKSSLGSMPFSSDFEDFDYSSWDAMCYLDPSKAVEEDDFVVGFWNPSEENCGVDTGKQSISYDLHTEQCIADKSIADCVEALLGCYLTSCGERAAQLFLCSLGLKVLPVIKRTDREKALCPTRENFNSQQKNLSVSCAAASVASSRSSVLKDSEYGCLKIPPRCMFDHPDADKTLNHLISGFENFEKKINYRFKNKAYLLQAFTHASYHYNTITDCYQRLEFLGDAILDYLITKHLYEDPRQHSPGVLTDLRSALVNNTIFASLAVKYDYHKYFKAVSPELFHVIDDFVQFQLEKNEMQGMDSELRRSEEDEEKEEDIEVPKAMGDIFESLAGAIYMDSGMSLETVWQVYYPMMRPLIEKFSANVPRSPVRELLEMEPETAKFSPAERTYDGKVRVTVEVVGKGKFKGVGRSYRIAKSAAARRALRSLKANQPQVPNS"}, "source": "paper PMC8550248", "key": {"[1]": {"target": "T1, endogenous SUV39H1 (human (endogenous in HCT116)) (UniProt O43463)", "T1 sequence": "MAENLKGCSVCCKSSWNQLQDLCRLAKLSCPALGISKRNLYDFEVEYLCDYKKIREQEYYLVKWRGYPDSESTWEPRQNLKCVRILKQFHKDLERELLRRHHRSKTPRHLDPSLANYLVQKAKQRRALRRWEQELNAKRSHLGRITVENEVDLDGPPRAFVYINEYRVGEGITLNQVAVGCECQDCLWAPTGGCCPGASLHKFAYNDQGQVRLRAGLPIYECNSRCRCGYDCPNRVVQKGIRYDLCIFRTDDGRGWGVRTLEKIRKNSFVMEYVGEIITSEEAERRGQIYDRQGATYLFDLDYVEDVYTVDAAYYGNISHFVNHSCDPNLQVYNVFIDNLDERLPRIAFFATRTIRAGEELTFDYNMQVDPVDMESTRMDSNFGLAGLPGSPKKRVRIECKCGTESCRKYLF", "assay": "co-IP; endogenous Dicer and SUV39H1, HCT116 lysate; Western blot"}, "[2]": {"target": "mp53-3KR (K➔R mutation at K117, K161, and K162) (mouse) (UniProt P02340)", "assay": "co-IP; H1299 cotransfected with expression vectors; lysate in BC100 buffer; Flag M2 Affinity Gel or Streptavidin beads or antibody; Western blot"}, "[3]": {"target": "mouse p53 WT (mouse) (UniProt P02340)", "assay": "co-IP; H1299 cotransfected with expression vectors; lysate in BC100 buffer; Flag M2 Affinity Gel or Streptavidin beads or antibody; Western blot"}, "[4]": {"target": "T2, Flag-SUV39H1 (UniProt O43463)", "T2 sequence": "T1 sequence", "assay": "pull-down; Flag-SUV39H1 immobilised on Flag M2 Affinity Gel, incubated with purified Dicer 4 hours at 4°C, washed with BC100 buffer six times; Western blot; both purified"}}, "note": "These are yes or no findings as the source states them, for the method shown. For some of these results: In cells and extracts the contact can be indirect. Some entries that bind do so weakly or less than the wild type. For some of these results: Tags and fused reporters may be left off the sequences shown.", "data": [{"substance": "Dicer (endogenous) (from UniProt Q9UPY3 1-1922)", "values": [{"measurement": "binding", "setting": "[1]", "result": "binds"}]}, {"substance": "HA-tagged Dicer (full length, amino acids 1 to 1922), expressed in H1299 (from UniProt Q9UPY3 1-1922)", "values": [{"measurement": "binding", "setting": "[2]", "result": "binds"}, {"measurement": "binding", "setting": "[3]", "result": "binds"}]}, {"substance": "HA-tagged Dicer, from HEK293 (from UniProt Q9UPY3 1-1922)", "values": [{"measurement": "binding", "setting": "[4]", "result": "binds"}]}]}
